The values that follow come from PMC7343838.

Amino acid sequences for entries named in this document (tags omitted). Residues count along the entry.
UniProt O54921, residues 1-99: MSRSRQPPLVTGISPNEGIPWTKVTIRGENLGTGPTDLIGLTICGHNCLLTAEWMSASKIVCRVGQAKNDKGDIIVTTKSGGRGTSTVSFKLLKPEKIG

This test has as its target GST-Sec5 (Ral-binding domain of rat Sec5, aa 1-99) (rat) (UniProt O54921). The test can be described thus: pull-down; GST-Sec5 (20 ug) on Glutathione Sepharose incubated with cell lysates for 25 min at 4 C; Ral lysis buffer (50 mM Tris pH 7.5, 100 mM NaCl, 4 mM MgCl2, 2 mM EGTA, 1% Triton X-100); cells serum-starved, with or without EGF (100 ng/ml); kB-Ras-proficient and -deficient cells compared; immunoblot; only the target purified. On the technique in general: Immunoblotting shows a protein as a band on a membrane.

No constants are given. Whether binding was seen depends on the method and setting. Binding seen in cells or lysates may run through a third protein. Some entries that bind do so weakly or less than the wild type. Where a sequence is shown, tags or fusion partners need not be part of it.

B1: RalA (endogenous, murine pancreatic ductal cell lines) (protein, UniProt P63321 1-206)
chain: MAANKPKGQNSLALHKVIMVGSGGVGKSALTLQFMYDEFVEDYEPTKADSYRKKVVLDGEEVQIDILDTAGQEDYAAIRDNYFRSGEGFLCVFSITEMESFAATADFREQILRVKEDENVPFLLVGNKSDLEDKRQVSVEEAKNRADQWNVNYVETSAKTRANVDKVFFDLMREIRARKMEDSKEKNGKKKRKSLAKRIRERCCIL
Take B1: the binding result is “binds”.

B2: flag-RalA F39L (murine, N-terminal 3x flag) (protein, UniProt P63321 1-206)
chain: MAANKPKGQNSLALHKVIMVGSGGVGKSALTLQFMYDELVEDYEPTKADSYRKKVVLDGEEVQIDILDTAGQEDYAAIRDNYFRSGEGFLCVFSITEMESFAATADFREQILRVKEDENVPFLLVGNKSDLEDKRQVSVEEAKNRADQWNVNYVETSAKTRANVDKVFFDLMREIRARKMEDSKEKNGKKKRKSLAKRIRERCCIL
In the case of B2, the binding entry was “binds”.
